# Measurements: PubChem BioAssay AID2685 (National Center for Advancing Translational Sciences (NCATS), 2010)
# Some of the results follow. Shown are side measurements of this screen, not its main read-out; they come without a call. Most of these compounds were active or inconclusive in the main read-out, so they are no random draw. The note in brackets gives the kind of curve behind each potency; many fits are weak.
# Experiment: qHTS Assay for Lipid Storage Modulators in Drosophila S3 Cells;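 for cell number change: cells counted by Cell Tracker Red CMTPX staining in the red channel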
# Details: BODIPY lipid droplet fluorescence, 18-24 h; for cell number change: measured here: cell count max response, cells fed with added oleic acid
# How it was run: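 Drosophila S3 cells loaded with oleic acid (400 uM, as added) and compounds at several concentrations; lipid droplets imaged by 488-nm laser-scanning cytometry, 500–530 nm intensity and object ratio to cell channel. Percent activity normalized to 20 uM Triacsin C.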
# [1] = measured here: cell number channel AC50, cells fed with added oleic acid
# [2] = measured here: lipid fluorescence (Fed channel) AC50, cells fed with added oleic acid
Compound,cell number change [%],AC50 [1],AC50 [2]
Cc1ccc(C)c(NC(=S)N2CCN(CCO)CC2)c1,-46.3,"1.46 µM [falling, full curve]",
O=C(O)c1ccccc1OCC1CCCO1 (stereo not drawn),0.42,,"29.1 µM [falling, single point]"
CN(C)S(=O)(=O)Oc1ccsc1C(=O)Nc1cccc(Cl)c1,-11.2,,"3.66 µM [falling, partial curve, poor fit]"
Cn1c(-c2c(N)n(C3CCCC3)c3nc4ccccc4nc23)nc2ccccc21,-0.305,"0.103 µM [falling, partial curve, poor fit]","29.1 µM [falling, single point]"
C=CCc1ccc(OCc2ccc(C(=O)Nc3ccc(NC(C)=O)cc3)o2)c(OC)c1,-49,"29.1 µM [falling, single point]","20.6 µM [falling, single point]"
CCCC1(c2ccccc2)NC(=O)N(CC(=O)c2[nH]c(C)c(C(=O)OCC)c2C)C1=O (stereo not drawn),,,"29.1 µM [falling, single point]"
Cn1cc(CN2CCC[C@H]2CO)c(-c2cccc(Cl)c2)n1,34.4,"8.2 µM [rising, partial curve]","0.259 µM [rising, full curve, poor fit]"
Cc1cnc(NC(=O)CC2CCCC2)s1,-2.49,"2.31 µM [rising, partial curve, poor fit]","0.116 µM [rising, full curve, poor fit]"
CC(=O)N/C(=N\c1nc(C)cc(C)n1)Nc1ccccc1Cl,-9.72,,"0.58 µM [falling, single point]"
CC(C)=CCCC(C)CN1CCC(n2nccc2NC(=O)c2cccnc2)CC1 (stereo not drawn),9.18,,"11.6 µM [rising, partial curve, poor fit]"
O=C(NCN1CCN(c2ccccn2)CC1)c1cnccn1,-18.3,,
CCCOc1ccc(C(=O)NNC(=S)NC(=O)c2cccs2)cc1,-7.26,,
Cc1ccc(Nc2cc(C)c3c(O)cccc3n2)cc1C,-32.3,"29.1 µM [falling, single point]","0.58 µM [falling, full curve]"
CCCn1c(SCC(=O)Nc2cccc(Cl)c2Cl)n[nH]c1=O,-27.2,,
CCCCOc1ccc(N=Cc2ccc[nH]2)cc1,9.38,,"25.9 µM [falling, single point]"
CCN(CC)CCCNc1nc(-n2nc(C)cc2C)nc2sc3c(c12)CC(C)(C)OC3,24.7,"1.64 µM [rising, partial curve, poor fit]","4.61 µM [rising, partial curve, poor fit]"
COc1ccc2c(c1)C(=NNc1ccc(C(=O)O)cc1)c1cc(OC)ccc1-2,12.1,,
COc1cc(/C=C(\NC(=O)c2ccccc2)C(=O)N2CC3CC(C2)c2cccc(=O)n2C3)cc(OC)c1OC (stereo not drawn),-1.45,,"0.00517 µM [falling, full curve, poor fit]"
COc1cccc(NC(=O)Nc2cc(Cl)ccc2C)c1,7.12,"3.26 µM [rising, single point]",
C=CCN1CCN(Cc2cnc(Cl)s2)CC1,-95.7,"16.4 µM [falling, partial curve]","18.4 µM [falling, partial curve]"

Compound,cell number change [%],AC50 [1],AC50 [2]
COc1ccc2c(c1)c(=O)oc1cc(OCC(=O)N3CCC(C)CC3)ccc12,-64.3,"20.6 µM [falling, single point]",
COCCCNC(=O)c1ccccc1NS(=O)(=O)c1ccc(C)cc1,,,"6.51 µM [rising, single point]"
COc1cc(NC(=O)C2C3C=CC(C3)C2C(=O)O)c(OC)cc1Cl (stereo not drawn),101,"29.1 µM [rising, single point]",
S=c1nc(-c2ccccc2)n(Cc2ccco2)c2c1CCCC2,-5.92,,"32.6 µM [rising, single point]"
COc1cccc(NC(=O)CN(C)C(=O)c2ccc(-c3ccccc3Cl)o2)c1,58.4,"13 µM [rising, partial curve]","29.1 µM [rising, single point]"
Cc1ccc(/C=C/c2ccc3cccc(O)c3n2)s1,29.4,,"29.1 µM [rising, single point]"
CCCn1c(=O)c(C(=O)Nc2ccccc2C(=O)OC)c(O)c2ccccc21,41.4,"29.1 µM [rising, single point]","0.731 µM [rising, single point]"
COc1ccc(S(=O)(=O)N(C)CC(=O)N2CCOCC2)cc1,-13.4,,
Cn1nc(C(=O)NC2=NCCS2)ccc1=O,-98.6,"25.9 µM [falling, partial curve]","1.84 µM [falling, partial curve]"
CC1(C)Cc2c(cnn2-c2ccccc2)C(NC(=O)CCN2CCCCO2)C1 (stereo not drawn),-7.65,,
C=CCN(c1ccccc1OC)S(=O)(=O)c1cccc(C(=O)NCc2cccs2)c1,434,"23.1 µM [rising, partial curve]",
O=C1c2ccccc2-c2nc3ncnn3c(-c3ccccc3Cl)c21,2.4,,
CCn1c(=O)c2ccccc2n2c(SCC(=O)N3CCc4ccccc4C3)nnc12,13.5,,
CC(=NCc1ccncc1)C1=C(O)c2ccccc2C1=O,31.3,"2.91 µM [rising, partial curve]","6.51 µM [rising, single point]"
N#Cc1c(N)n(-c2ccc(O)cc2)c2nc3ccccc3nc12,26.2,,
CCCCCCCCCCOC(=O)Cn1c(COc2ccc(C)cc2)[n+](C)c2ccccc21,-38.9,"4.61 µM [falling, full curve]","11.6 µM [falling, partial curve]"
Nc1c(-c2ccccc2)c(CSc2nc3ccccc3[nH]2)nn1-c1ccc(Cl)cc1,-50,"2.06 µM [falling, full curve]",
CC(C)(C)c1ccc(S(=O)(=O)N2CCCCC2C(=O)NCc2ccccn2)cc1 (stereo not drawn),,,"0.731 µM [falling, single point]"
O=c1c2c(nc3nc(Cc4ccccc4)[nH]n13)CCC2,6.2,,
O=C(Cn1c(NCCO)nc2ccccc21)NCC1CCCO1 (stereo not drawn),61.4,"25.9 µM [rising, partial curve, poor fit]","0.82 µM [rising, full curve, poor fit]"

Compound,cell number change [%],AC50 [1],AC50 [2]
OC1c2cc(Br)ccc2N=C2CCCN21 (stereo not drawn),-2.78,,
O=C(COc1ccc2c(-c3ccccc3)cc(=O)oc2c1)NC1CCS(=O)(=O)C1 (stereo not drawn),-6.34,"0.517 µM [falling, partial curve]","0.58 µM [falling, partial curve]"
CN1CCCN(C(=O)CC(c2ccccc2)c2ccccc2)CC1,-37.7,"2.91 µM [falling, single point]",
COCCN(C(=O)c1ccc(N2C(=O)c3ccccc3C2=O)cc1)c1c(N)n(CC(C)C)c(=O)[nH]c1=O,-31.5,"16.4 µM [falling, partial curve, poor fit]","8.2 µM [falling, partial curve]"
c1ccc(-c2cc(N3CCCCCC3)n[nH]2)cc1,199,"13 µM [rising, partial curve]","23.1 µM [rising, single point]"
COc1cccc2sc(=NC(=O)CS(=O)(=O)c3ccc(Cl)cc3)n(C)c12,113,"20.6 µM [rising, partial curve]",
O=C(c1ccc(-c2ccc(Cl)cc2)o1)N1CCN(S(=O)(=O)c2cccs2)CC1,-21.3,,"0.411 µM [falling, full curve, poor fit]"
COC(=O)CC/C(O)=C1/C(=N)CC(C)(C)CC1=O,9.97,,
CCOC(=O)C1CCN(Cc2nc3ccc([N+](=O)[O-])cc3c(=O)n2-c2ccc(OC)cc2OC)CC1,17.9,,"1.46 µM [rising, partial curve, poor fit]"
CCCCn1c(N)c(N(CCOC)C(=O)c2ccc(-c3ccc(Cl)cc3)o2)c(=O)[nH]c1=O,44.4,"16.4 µM [rising, partial curve]",
Cc1cc(Cl)c2oc(C(=O)NCCC3CCCCO3)c(C)c2c1 (stereo not drawn),-4.67,,
COc1ccc(/C=C2\CCc3ccccc3C2=O)cc1OC,-30,"20.6 µM [falling, single point]","23.1 µM [falling, single point]"
COc1cc(-c2nnc(COC(=O)c3nn(CC(C)C)c(=O)c4ccccc34)o2)cc(OC)c1OC,,"0.13 µM [rising, full curve, poor fit]","0.731 µM [rising, full curve]"
CN(C)c1ccc(CNC(=O)CCNS(=O)(=O)c2cc(Br)cnc2N)cc1,23.8,,"20.6 µM [rising, partial curve]"
COc1ccc(C(=O)c2ccc(OC)cc2O)c(O)c1,-20.4,,
O=C(CN1CCC(NC(=O)c2cccc(F)c2)CC1)Nc1ccc(Br)cc1,-19.5,,"23.1 µM [falling, single point]"
CC1CCN(CCCNC(=O)CCCNC(=O)Cn2cnc3sc4c(c3c2=O)CCCC4)CC1,0.594,,
CN(C)c1nc(N(C)C)n(C(=O)c2ccc(F)cc2)n1,-42.7,"1.16 µM [falling, full curve, poor fit]","0.92 µM [falling, full curve, poor fit]"
CCn1c(SCC(=O)N/N=C/C=C\c2ccco2)nc2ccccc21,-20.5,,"29.1 µM [falling, single point]"

# 4 compounds out of the list, arranged by number of heavy atoms, smallest number first:
Compound,cell number change [%],AC50 [1],AC50 [2]
c1ccc(-c2cc(N3CCCCCC3)n[nH]2)cc1,199,"13 µM [rising, partial curve]","23.1 µM [rising, single point]"
COc1ccc(C(=O)c2ccc(OC)cc2O)c(O)c1,-20.4,,
CCn1c(SCC(=O)N/N=C/C=C\c2ccco2)nc2ccccc21,-20.5,,"29.1 µM [falling, single point]"
CN(C)c1ccc(CNC(=O)CCNS(=O)(=O)c2cc(Br)cnc2N)cc1,23.8,,"20.6 µM [rising, partial curve]"

# As entered above.
# Under AC50 [2], CC(C)(C)c1ccc(S(=O)(=O)N2CCCCC2C(=O)NCc2ccccn2)cc1 (stereo not drawn) reads 0.731 µM [falling, single point]
# Under cell number change [%], OC1c2cc(Br)ccc2N=C2CCCN21 (stereo not drawn) reads -2.78
